Amino acid sequences for entries named in this document (tags omitted). A change or cut given only in a name is not applied to a line headed by its entry.
UniProt P48061: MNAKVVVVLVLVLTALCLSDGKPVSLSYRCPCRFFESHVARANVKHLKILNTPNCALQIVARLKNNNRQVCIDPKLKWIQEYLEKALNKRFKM

According to patent publication US20130310442:

Target: human SDF-1alpha (CXCL12) (Homo sapiens) (UniProt P48061)
Experiment: activity in cells
Settings: L-RNA, 5'-40 kDa PEG, purified recombinant protein, mirror-image nucleic acid; for pIC50: variant of 193-G2-001 Spiegelmer

Sequence	functional effect of the aptamer (did not reverse SDF-1-modulated Jurkat adhesion, variant of NOX-A12 (193-G2-012-5'-PEG), dose not given here)	pIC50 (CXCR7 beta-arrestin complementation in CHO, 10 nM SDF-1)	pIC50 (Jurkat chemotaxis, 0.3 nM SDF-1)
CGCAUGGACUGAUCCUAGUCGGUUAUGUAGAUCUAGUGUGGUGCG [revNOX-A12]	not active		
GCGUGGUGUGAUCUAGAUGUAUUGGCUGAUCCUAGUCAGGUACGC [NOX-A12 (193-G2-012-5'-PEG)]		8.27	9.70

pIC50: −log10 of the molar value. For at least one entry, the source does not settle the construct or the ends of the probe. Negatives hold for the conditions tested.
